No constants are given. Whether binding was seen depends on the method and setting. In cells and extracts the contact can be indirect. Some results given as binding are weak or reduced against the parent protein; the word gives no strength.
Molecular target: catalytic subunit of PP2A, endogenous in MDA-MB-231 cells (human) (UniProt P67775)
Assay: co-immunoprecipitation with the PP2A catalytic subunit from MDA-MB-231 cells, immunoblot

By UniProt entry, the sequences of proteins in these tests, tags left out. Residues count along the entry.
UniProt P67775: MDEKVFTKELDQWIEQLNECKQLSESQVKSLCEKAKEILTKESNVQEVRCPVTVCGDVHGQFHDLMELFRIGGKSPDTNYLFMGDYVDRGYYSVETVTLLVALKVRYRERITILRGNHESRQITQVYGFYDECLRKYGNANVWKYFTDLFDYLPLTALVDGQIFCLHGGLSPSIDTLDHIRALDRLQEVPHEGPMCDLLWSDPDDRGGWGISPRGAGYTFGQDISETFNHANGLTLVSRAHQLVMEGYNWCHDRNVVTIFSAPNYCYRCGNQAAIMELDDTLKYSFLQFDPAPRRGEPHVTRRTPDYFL
UniProt Q01105, residues 2-290: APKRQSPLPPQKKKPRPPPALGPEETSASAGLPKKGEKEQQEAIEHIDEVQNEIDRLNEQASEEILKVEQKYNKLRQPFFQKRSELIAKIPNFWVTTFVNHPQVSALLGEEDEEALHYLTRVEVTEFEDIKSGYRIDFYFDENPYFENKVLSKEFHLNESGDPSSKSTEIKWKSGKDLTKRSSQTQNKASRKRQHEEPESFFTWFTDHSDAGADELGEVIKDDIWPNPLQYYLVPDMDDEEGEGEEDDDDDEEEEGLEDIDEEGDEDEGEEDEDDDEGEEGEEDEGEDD

binding: binds
Substance: I2PP2A (also known as SET), endogenous in human cells (from UniProt Q01105 2-290)

— patent publication US20160008424A1
